Taken from: PubChem BioAssay AID1224830 (NIAID, 2016)
This is an unselected part of about 18,000 reagents. Over the whole deposit, about 2,900 (16%) got an active call. 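Calls are made per well; low scores hint the gene aids the LPS response, high scores that it dampens it.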 A number with no mark means an inactive call. Repeated entries: four replicate wells of each siRNA pool.

Assay: 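Genes whose knock-down alters the TNF-alpha reporter response to LPS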 (primary screen)
Cells: human THP-1 monocytic leukaemia cells, TNF dual-luciferase reporter clone, PMA-differentiated to macrophage-like cells
Reagents: siRNA pool against human genes, 50 nM
Duration: LPS for 4 h, given about 3 days after siRNA transfection
Challenge: bacterial LPS (TLR4 ligand), 10 ng/ml
Read-out: 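Ratio of firefly to renilla light, scaled to the plate median and expressed as a robust z-score per replicate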
Reading the numbers: TNF reporter robust z-score: higher = stronger TNF reporter response to LPS
Rule for the call: 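Each well counts as active if its z-score is over 2.8 or under -1.5; controls are left without a call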

gene	TNF reporter robust z-score
NDUFB2 (GeneID 4708)	-1.06
NDUFB2 (GeneID 4708)	-1.28
NDUFB2 (GeneID 4708)	-0.55
NDUFB2 (GeneID 4708)	0.75
IFNA13 (GeneID 3447)	-1.33
IFNA13 (GeneID 3447)	-1.03
IFNA13 (GeneID 3447)	-0.99
IFNA13 (GeneID 3447)	-0.52
UCHL1 (GeneID 7345)	-0.09
UCHL1 (GeneID 7345)	0.04
UCHL1 (GeneID 7345)	-0.12
UCHL1 (GeneID 7345)	0.69
LINC00482 (GeneID 284185)	1.66
LINC00482 (GeneID 284185)	3.29 (active)
LINC00482 (GeneID 284185)	3.16 (active)
LINC00482 (GeneID 284185)	0.11
HACD4 (GeneID 401494)	-0.16
HACD4 (GeneID 401494)	-0.82
HACD4 (GeneID 401494)	-0.59
HACD4 (GeneID 401494)	0.38
HOXC6 (GeneID 3223)	0.76
HOXC6 (GeneID 3223)	1.84
HOXC6 (GeneID 3223)	1.09
HOXC6 (GeneID 3223)	1.47
SHROOM2 (GeneID 357)	0.75
SHROOM2 (GeneID 357)	0.92
SHROOM2 (GeneID 357)	-1.16
SHROOM2 (GeneID 357)	0.7
BMP2 (GeneID 650)	1.43
BMP2 (GeneID 650)	1.78
BMP2 (GeneID 650)	1.56
BMP2 (GeneID 650)	2.33
PAICS (GeneID 10606)	0.57
PAICS (GeneID 10606)	0.68
PAICS (GeneID 10606)	-0.89
PAICS (GeneID 10606)	-0.17
TRPC5 (GeneID 7224)	0.42
TRPC5 (GeneID 7224)	-0.21
TRPC5 (GeneID 7224)	-0.28
TRPC5 (GeneID 7224)	-0.72
RNF40 (GeneID 9810)	0.95
RNF40 (GeneID 9810)	-0.6
RNF40 (GeneID 9810)	-0.5
RNF40 (GeneID 9810)	-0.54
COL8A2 (GeneID 1296)	-1.22
COL8A2 (GeneID 1296)	-0.94
COL8A2 (GeneID 1296)	-1.21
COL8A2 (GeneID 1296)	-1.14
TMTC4 (GeneID 84899)	-0.98
TMTC4 (GeneID 84899)	-0.85
TMTC4 (GeneID 84899)	-1.54 (active)
TMTC4 (GeneID 84899)	-0.79
OR10G8 (GeneID 219869)	0.09
OR10G8 (GeneID 219869)	0.39
OR10G8 (GeneID 219869)	-0.17
OR10G8 (GeneID 219869)	-0.07
RBM11 (GeneID 54033)	-0.23
RBM11 (GeneID 54033)	0.5
RBM11 (GeneID 54033)	-0.52
RBM11 (GeneID 54033)	0.85
ADO (GeneID 84890)	-0.4
ADO (GeneID 84890)	0.55
ADO (GeneID 84890)	-1.02
ADO (GeneID 84890)	-1.25
CXCR4 (GeneID 7852)	-1.55 (active)
CXCR4 (GeneID 7852)	-1.16
CXCR4 (GeneID 7852)	-1.74 (active)
CXCR4 (GeneID 7852)	-1.7 (active)
NCOA4 (GeneID 8031)	-0.14
NCOA4 (GeneID 8031)	0.35
NCOA4 (GeneID 8031)	0.12
NCOA4 (GeneID 8031)	0.27
MATN1 (GeneID 4146)	-0.01
MATN1 (GeneID 4146)	0.08
MATN1 (GeneID 4146)	2.06
MATN1 (GeneID 4146)	5.46 (active)
CPAMD8 (GeneID 27151)	-0.67
CPAMD8 (GeneID 27151)	-0.24
CPAMD8 (GeneID 27151)	-1.41
CPAMD8 (GeneID 27151)	-1.55 (active)
STEAP4 (GeneID 79689)	-0.12
STEAP4 (GeneID 79689)	0.36
STEAP4 (GeneID 79689)	-0.04
STEAP4 (GeneID 79689)	0.73
TUBA8 (GeneID 51807)	-0.19
TUBA8 (GeneID 51807)	0.69
TUBA8 (GeneID 51807)	0.18
TUBA8 (GeneID 51807)	0.55
DCAF4L1 (GeneID 285429)	-0.4
DCAF4L1 (GeneID 285429)	0.31
DCAF4L1 (GeneID 285429)	-0.86
DCAF4L1 (GeneID 285429)	-0.38
GUCY2EP (GeneID 390226)	-0.07
GUCY2EP (GeneID 390226)	0.26
GUCY2EP (GeneID 390226)	0.06
GUCY2EP (GeneID 390226)	1.04
OR2T34 (GeneID 127068)	-0.67
OR2T34 (GeneID 127068)	0.14
OR2T34 (GeneID 127068)	-0.16
OR2T34 (GeneID 127068)	0
CRACR2A (GeneID 84766)	-0.16
CRACR2A (GeneID 84766)	0.82
CRACR2A (GeneID 84766)	1.16
CRACR2A (GeneID 84766)	-0.1
POMGNT1 (GeneID 55624)	-0.76
POMGNT1 (GeneID 55624)	-0.54
POMGNT1 (GeneID 55624)	0.03
POMGNT1 (GeneID 55624)	0.05
SLC9A4 (GeneID 389015)	-0.18
SLC9A4 (GeneID 389015)	0.1
SLC9A4 (GeneID 389015)	0.46
SLC9A4 (GeneID 389015)	0.55
